From PubChem BioAssay AID540256 (National Center for Advancing Translational Sciences (NCATS), 2011)
“And” between values parts separate entries of the source, which are not always exact repeats. Equal values may be shown once. Among all 300,000 compounds or so, about 3,700 (1.2%) were called active. The shares of active, inactive and inconclusive entries below differ from those in the screen. Calls come from the whole dose curve; tested in HEK293 cells. A potency beside an inconclusive call is a rough fit, not a confirmed value.

assay: qHTS for Inhibitors of binding or entry into cells for Lassa Virus; details: Lassa virus pseudotype entry inhibition, cell reporter; activity change, negative = inhibition: at 37.9 µM (top of the series) unless noted; note: nearly all actives have a fitted effect of over 50% in size
% is set by controls: 0 for no effect and ±100 for the full control effect; potency is the fitted concentration of half-maximal effect.

| SMILES | Potency | activity change, negative = inhibition |
| --- | --- | --- |
| CCOc1ccc(CCNC(=O)C2CCN(c3nn4c(=O)cc(C)nc4s3)CC2)cc1 | inactive | – |
| O=C(NCc1n[nH]c(=S)n1-c1ccccc1)c1ccco1 | inconclusive: 20.6 µM [activator, partial curve, poor fit] | – |
| O=C(COc1ccc(Br)cc1Cl)NC(=S)N1CCc2ccccc21 | inconclusive: 29.1 µM [activator, single point] | – |
| CCn1c(C)c(C(C)=O)c(N2CCN(C(c3ccccc3)c3ccccc3)CC2)nc1=S | inconclusive: 8.91 µM [inhibitor, partial curve, poor fit] | – |
| CCn1cc2nc(SCc3cccc(C(F)(F)F)c3)n(Cc3ccc(OC)cc3)c(=O)c2n1 | inconclusive: 11.2 µM [inhibitor, single point] | – |
| COc1cc(/C=N/NP(=S)(c2ccccc2)c2ccccc2)ccc1O | inconclusive: 7.94 µM [inhibitor, partial curve, poor fit] | – |
| COc1cccc(CNS(=O)(=O)c2cn(C)cn2)c1 | inconclusive: 3.98 µM [activator, full curve, poor fit] | – |
| O=C(Nc1cccc(C(F)(F)F)c1)C1CCN(S(=O)(=O)c2cccs2)CC1 | inactive | – |
| CC(C)Sc1nnc([C@H](Cc2c[nH]c3ccccc23)NC(=O)OC(C)(C)C)o1 | inconclusive: 4.61 µM [inhibitor, full curve] | – |
| CN(C)CCCN(C(=O)c1ccc(S(=O)(=O)N2CCc3ccccc32)cc1)c1nc2ccc(F)cc2s1 | inconclusive: 35.5 µM [inhibitor, single point] | – |
| CCOc1ccc(N(CC(=O)N2CCC(Cc3ccccc3)CC2)S(C)(=O)=O)cc1 | inconclusive: 3.16 µM [inhibitor, partial curve, poor fit] | – |
| O=C(CC(C(=O)O)c1c[nH]c2ccccc12)c1ccccc1 (configuration not stated) | inconclusive: 12.6 µM [activator, single point] | – |
| O=C(Nc1ccc(COc2ccccc2)cc1)Oc1ccccc1N1CCOCC1 | inconclusive: 35.5 µM [inhibitor, single point] | – |
| Cc1ccc(COC(=O)c2cc(S(=O)(=O)N3CCCCC3)ccc2N2CCOCC2)cc1 | active: 7.08 µM | – |
| CCOc1ccccc1Nc1nnc(SC(C)C(=O)Nc2nc(-c3ccccc3)cs2)s1 (configuration not stated) | active: 6.31 µM | – |
| CC(=O)c1ccc(NC(=O)CSc2nnc(N)s2)cc1 | inconclusive: 7.08 µM [activator, partial curve] | – |
| CCOC(=O)C1CCCC(NS(=O)(=O)c2ccc(NC(C)=O)cc2)C1 (configuration not stated) | inconclusive: 2.59 µM [inhibitor, partial curve, poor fit] | – |
| CC1=CC(=O)C(C(C)C)=C/C1=C(\c1cc(C(C)C)c(OP(=O)(O)O)cc1C)c1ccccc1C(=O)O | inconclusive: 17.8 µM [inhibitor, partial curve, poor fit] | – |
| COc1cc(Cl)c(C)cc1NC(=O)Cn1c(C)c2cnn(-c3ccccc3)c(=O)c2c1C | inactive | – |
| COc1ccc([C@]23Cc4ccccc4[C@H](O2)C2=C(CC4(CCCCC4)OC2=O)O3)cc1 | inconclusive: 5.31 µM [activator, single point] | – |
| CN(CCc1ccccn1)c1ncnc2[nH]ncc12 | inactive | – |
| Cn1cc(/C=C2\SC(=S)N(NC(=O)c3ccccc3Cl)C2=O)c2ccccc21 | inactive | – |
| C=C(C)Cn1c(SCC(=O)c2ccccc2)nc2sc3c(c2c1=O)CCCC3 | inconclusive: 0.562 µM [inhibitor, full curve, poor fit] | – |

| SMILES | Potency | activity change, negative = inhibition |
| --- | --- | --- |
| Brc1cc2c(cc1CN1CCN(c3ccccc3)CC1)OCCO2 | inconclusive: 3.16 µM [inhibitor, single point] | – |
| Cc1ccc(CCNC(=O)c2ccc3nc(N4CCC(C)CC4)sc3c2)cc1 | inconclusive: 3.98 µM [inhibitor, partial curve, poor fit] | – |
| CC(C)NC(=O)c1ccc(Cn2c(SCC(N)=O)nc3ccccc3c2=O)cc1 | inactive | – |
| CC1=CC[C@@H](C)O[C@@]2(C1)C(=O)Nc1cccc(Br)c12 | inactive and inconclusive: 16.8 nM [activator, partial curve, poor fit] | – |
| COc1ccccc1-n1cnnc1SCC(=O)Nc1ccccc1 | inactive | – |
| COc1ccc(-c2cc(-c3ccccc3)n[nH]2)c(O)c1 | inconclusive: 3.55 µM [activator, partial curve, poor fit] | – |
| CCC(C)/C(C)=N/NC(=O)CSc1nc2ccccc2[nH]1 (configuration not stated) | inactive | – |
| CC1(O)CC2CC1C(C(=O)O)C2C(=O)O (configuration not stated) | inactive | – |
| CC1CCC2C(=O)N(c3ccc(C(=O)Oc4cccc5cccnc45)cc3)C(=O)C2C1 (configuration not stated) | inconclusive: 2.51 µM [inhibitor, partial curve, poor fit] | – |
| Cc1ccc(NC(=O)C2CCN(C(=O)c3ccco3)CC2)cc1C | inconclusive: 22.4 µM [activator, single point] | – |
| Cc1ncc(CO)c2c1Oc1nc(-c3ccccc3Cl)nc(SCc3ccccc3F)c1C2 | inactive | – |
| CC1CCc2c(sc3ncn(CCO)c(=O)c23)C1 (configuration not stated) | inactive | – |
| CCOc1ccccc1N1CCN(C(=O)c2ccc3c(c2)OCO3)CC1 | inactive | – |
| CCOC(=O)C1(CC2CCCCO2)CCN(C(=O)Nc2ccc(SC)cc2)CC1 (configuration not stated) | inconclusive: 12.6 µM [inhibitor, partial curve, poor fit] | – |
| CS(=O)(=O)N(Cc1ccc(C(=O)NCCSc2ccccn2)cc1)c1ccccc1 | inconclusive: 28.2 µM [inhibitor, single point] | – |
| COC(=O)N/N=C(\C)c1cccc(C(F)(F)F)c1 | inactive | – |
| O=C(Nc1ccc(N2CCCC2)c(Cl)c1)c1ccc2c(c1)OCCO2 | inconclusive: 2 µM [inhibitor, single point] | – |
| CSc1ccccc1C(=O)Nc1ccc2c(c1)OCO2 | inactive | – |
| O=C(Nc1ccccc1N1CCN(c2ccccc2)CC1)c1cccc(F)c1 | inconclusive: 3.98 µM [inhibitor, full curve, poor fit] | – |
| CCC(=NCCN1CCCCC1)c1c(O)n(C)c(=O)n(C)c1=O | inactive | – |
| CCN(CC)CCNC(Cc1ccccc1)c1cccc(OC)c1 (configuration not stated) | inconclusive: 22.4 µM [inhibitor, single point] | – |
| N=C(N)SCc1cn(-c2ccccc2)nc1-c1ccc(Br)cc1 | inconclusive: 35.5 µM [inhibitor, single point] | – |
| Cc1[nH]c(=O)c(Cc2ccccc2)c(O)c1C#N | inconclusive: 12.6 µM [inhibitor, single point] | – |

Reformatted: two of the compounds above.
SMILES	Potency	activity change, negative = inhibition
O=C(Nc1ccccc1N1CCN(c2ccccc2)CC1)c1cccc(F)c1	inconclusive: 3.98 µM [inhibitor, full curve, poor fit]	–
CCC(=NCCN1CCCCC1)c1c(O)n(C)c(=O)n(C)c1=O	inactive	–

Additional compounds follow.

| SMILES | Potency | activity change, negative = inhibition |
| --- | --- | --- |
| Fc1ccc(N2CCN(Cc3cn[nH]c3-c3ccccc3)CC2)cc1 | inconclusive: 8.91 µM [inhibitor, partial curve, poor fit] | – |
| Cc1cc(=O)oc2c(C)c(OC3CCCCC3=O)ccc12 (configuration not stated) | inconclusive: 35.5 µM [activator, single point] | – |
| C/C(=N\NC(=O)c1ccc(OC2CCCC2)cc1)c1ccc(O)cc1 | inconclusive: 3.16 µM [inhibitor, full curve] | – |
| COc1ccc(C(=O)C2CCCN(S(=O)(=O)c3ccccc3F)C2)c(C)c1 (configuration not stated) | inconclusive: 6.31 µM [inhibitor, single point] | – |
| O=C(C1CCCN(S(=O)(=O)c2cccc3nonc23)C1)N1CCC(Cc2ccccc2)CC1 (configuration not stated) | inconclusive: 1.12 µM [activator, full curve, poor fit] | – |
| O=S(=O)(c1ccc(Br)cc1)c1nc(-c2ccccc2)oc1N1CCOCC1 | inconclusive: 8.91 µM [inhibitor, partial curve] | – |
| COc1ccc(NC(=S)NC2CCCCCC2)c(OC)c1 | inactive | – |
| Nc1cccc2c1C(=O)N(C(=O)/C=C/c1cccc(F)c1)C2=O | inconclusive: 35.5 µM [inhibitor, single point] | – |
| COc1ccc(Nc2nc3ccc(OC)cc3s2)cc1 | inconclusive: 14.1 µM [inhibitor, single point] | – |
| COc1cc(/C=N/NC(=O)CC2(C)OCCCO2)ccc1OCc1ccc(Cl)cc1Cl | inconclusive: 0.708 µM [inhibitor, single point] | – |
| CC1CC(C)CN(C(=O)/C(=C\c2ccccc2)c2ccccc2)C1 (configuration not stated) | inactive | – |
| Oc1c(C(c2ccccn2)N2CCOCC2)ccc2cccnc12 (configuration not stated) | inconclusive: 29.1 µM [inhibitor, single point] | – |
| CCN(CC)S(=O)(=O)c1ccc(N/N=C(\C)c2ccncc2)c([N+](=O)[O-])c1 | inconclusive: 6.31 µM [inhibitor, single point] | – |
| CCCCc1ccc(N/C(N)=N/c2nc(C)cc(C)n2)cc1 | inconclusive: 14.1 µM [inhibitor, partial curve, poor fit] | – |
| C/C(N)=C(/C#N)C(=O)COC(=O)c1ccccc1O | inconclusive: 6.31 µM [activator, partial curve, poor fit] | – |
| Cc1nnc(SCC(=O)c2cc(C)n(C3CC3)c2C)s1 | inconclusive: 35.5 µM [inhibitor, single point] | – |
| O=C(NCc1ccccc1)c1cccc(COc2ccc3c(c2)CCC3)c1 | inconclusive: 7.94 µM [inhibitor, partial curve, poor fit] | – |
| O=C(Nc1sc2c(c1C(=O)O)CCC2)c1cccs1 | inconclusive: 22.4 µM [inhibitor, single point] | – |
| COc1ccc(/C=N\n2nnc3ccccc32)cc1 | active: 1.41 µM | – |
| COc1ccccc1NC(=O)CSc1nc(O)cc(=O)n1C | inconclusive: 0.13 µM [activator, full curve, poor fit] | – |
| CCC(Oc1ccccc1-c1nnc(-c2ccccc2)o1)C(=O)Nc1ccc(C(C)=O)cc1 (configuration not stated) | – | inconclusive: 2.52% [activator] [at 46.1 µM] |

One compound at a time, from the list above.
`O=C(Nc1sc2c(c1C(=O)O)CCC2)c1cccs1` reads Potency: inconclusive: 22.4 µM [inhibitor, single point]
`CCOc1ccccc1Nc1nnc(SC(C)C(=O)Nc2nc(-c3ccccc3)cs2)s1` (configuration not stated) reads Potency: active: 6.31 µM
